The text below walks through data of patent US20250074868A1, “POLYHYDROXYLATED PHOTOINITIATORS” (Arkema France, priority 2021, published 2025).

This data set is described as follows: UV-curing experiments, thumb-twist test for full cure under Hg lamp. The note with it: 2 g Ucecoat 2805, photoinitiator 2 phr, triethanolamine 5 phr, Hg lamp 30% intensity, 24-μm films, belt speed 20 m/min. How it is done: Formulations containing 2 g of the water-borne resin Ucecoat 2805 (Allnex), 0.04 g of a photoinitiator (2 phr=2 parts by weight per 100 parts by weight of resin), and 0.10 g triethanolamine (as amine synergist, 5 phr) were prepared by mixing the materials together and stirring at room temperature for ˜30 mins. The PIs and amine co-initiators were fully dissolved in the resin within this time. The formulations were then cured under a Hg lamp (30% intensity) in 24-μm films using a belt speed of 20 m/min. The number of passes under the Hg lamp required to achieve full-cure (as determined by the thumb-twist test, in which pressure is applied with a thumb in a twisting motion until no marks are left on the cured film surface), is given below.

As to `O=C(c1ccccc1)c1ccc(OCC(=O)N(CCO)CCO)cc1OCC(=O)N(CCO)CCO` [benzophenone polyol 1], the “No. of passes to full cure” value amounted to 2.
Then `CC(C)(O)C(=O)c1ccc(OCCO)cc1` [SpeedCure 2959], with 2.
